Results are given in words; binding and its absence hold for the method and conditions named. Binding seen in cells or lysates may run through a third protein. Some binding calls cover weakened binding; strength is not graded here. Sequences can lack the tags named with a protein.

By UniProt entry, the sequences of proteins in these tests, tags left out. Residues count along the entry.
UniProt Q9QUK6, residues 26-835: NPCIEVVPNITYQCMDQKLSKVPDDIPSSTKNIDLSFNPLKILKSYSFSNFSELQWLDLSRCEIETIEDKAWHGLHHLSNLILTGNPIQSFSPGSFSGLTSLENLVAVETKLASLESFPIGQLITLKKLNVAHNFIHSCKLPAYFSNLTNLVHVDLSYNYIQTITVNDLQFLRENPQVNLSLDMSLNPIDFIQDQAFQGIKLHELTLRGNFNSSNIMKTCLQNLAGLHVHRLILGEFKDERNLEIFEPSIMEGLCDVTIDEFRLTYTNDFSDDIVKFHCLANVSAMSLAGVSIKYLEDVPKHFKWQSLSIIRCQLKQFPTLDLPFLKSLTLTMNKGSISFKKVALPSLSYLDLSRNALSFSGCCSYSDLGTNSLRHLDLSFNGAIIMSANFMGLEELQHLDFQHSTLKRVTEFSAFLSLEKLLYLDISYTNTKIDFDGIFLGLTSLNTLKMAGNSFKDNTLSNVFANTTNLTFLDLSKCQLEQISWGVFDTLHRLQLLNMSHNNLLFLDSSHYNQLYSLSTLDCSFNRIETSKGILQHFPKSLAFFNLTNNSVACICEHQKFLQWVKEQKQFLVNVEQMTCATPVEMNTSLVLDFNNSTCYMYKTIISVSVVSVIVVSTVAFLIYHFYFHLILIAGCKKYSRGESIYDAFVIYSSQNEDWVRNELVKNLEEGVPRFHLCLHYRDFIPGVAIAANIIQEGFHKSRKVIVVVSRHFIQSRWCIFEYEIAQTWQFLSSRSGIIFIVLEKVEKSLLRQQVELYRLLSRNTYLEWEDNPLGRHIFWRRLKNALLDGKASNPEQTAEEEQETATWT
UniProt Q9QUN7, residues 25-784: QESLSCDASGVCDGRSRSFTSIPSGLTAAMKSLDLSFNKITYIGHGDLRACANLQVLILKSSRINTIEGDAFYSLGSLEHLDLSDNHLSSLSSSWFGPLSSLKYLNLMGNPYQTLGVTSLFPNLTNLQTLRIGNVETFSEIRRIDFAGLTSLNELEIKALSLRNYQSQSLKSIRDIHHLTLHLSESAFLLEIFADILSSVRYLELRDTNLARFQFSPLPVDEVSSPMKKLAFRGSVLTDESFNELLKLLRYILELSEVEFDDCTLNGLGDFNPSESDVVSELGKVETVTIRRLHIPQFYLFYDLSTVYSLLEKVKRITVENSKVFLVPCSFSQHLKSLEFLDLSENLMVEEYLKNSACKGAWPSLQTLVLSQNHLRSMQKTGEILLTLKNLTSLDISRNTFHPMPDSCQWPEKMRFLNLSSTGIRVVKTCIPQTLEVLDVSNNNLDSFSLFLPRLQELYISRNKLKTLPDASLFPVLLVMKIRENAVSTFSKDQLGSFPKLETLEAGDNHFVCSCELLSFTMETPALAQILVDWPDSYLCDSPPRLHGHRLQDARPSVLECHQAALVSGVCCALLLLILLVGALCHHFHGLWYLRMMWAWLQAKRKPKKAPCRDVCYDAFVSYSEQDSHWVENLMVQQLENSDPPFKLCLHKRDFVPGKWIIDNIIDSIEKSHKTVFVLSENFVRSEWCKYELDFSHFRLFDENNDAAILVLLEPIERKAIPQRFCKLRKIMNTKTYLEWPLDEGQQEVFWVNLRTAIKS

The target of test [1] is Toll-like receptor 4 (TLR4), mouse, endogenous (mouse (endogenous in RAW264.7 and in C57BL/6 peritoneal macrophages)) (UniProt Q9QUK6). In words: co-IP; only the binder purified.
For test [2], the target named is Toll-like receptor 2 (TLR2), mouse, endogenous (mouse (endogenous in RAW264.7)) (UniProt Q9QUN7). In words: co-IP; only the binder purified.

B1: ESX secretion-associated protein C (EspC) from Mycobacterium tuberculosis, His-tagged recombinant (protein, UniProt P9WJD7 1-103)
chain: MTENLTVQPERLGVLASHHDNAAVDASSGVEAAAGLGESVAITHGPYCSQFNDTLNVYLTAHNALGSSLHTAGVDLAKSLRIAAKIYSEADEAWRKAIDGLFT
With B1, the binding result is listed as “binds” in test [1] and “no binding (tested: 5 μg/mL)” in test [2].

The values are drawn from PMC6523024.
